Measured values taken from patent US20100113339A1.
No constants are given. Whether binding was seen depends on the method and setting. Some results given as binding are weak or reduced against the parent protein; the word gives no strength.

Amino acid sequences for entries named in this document (tags omitted). Residues count along the entry.
UniProt P07724, residues 25-608: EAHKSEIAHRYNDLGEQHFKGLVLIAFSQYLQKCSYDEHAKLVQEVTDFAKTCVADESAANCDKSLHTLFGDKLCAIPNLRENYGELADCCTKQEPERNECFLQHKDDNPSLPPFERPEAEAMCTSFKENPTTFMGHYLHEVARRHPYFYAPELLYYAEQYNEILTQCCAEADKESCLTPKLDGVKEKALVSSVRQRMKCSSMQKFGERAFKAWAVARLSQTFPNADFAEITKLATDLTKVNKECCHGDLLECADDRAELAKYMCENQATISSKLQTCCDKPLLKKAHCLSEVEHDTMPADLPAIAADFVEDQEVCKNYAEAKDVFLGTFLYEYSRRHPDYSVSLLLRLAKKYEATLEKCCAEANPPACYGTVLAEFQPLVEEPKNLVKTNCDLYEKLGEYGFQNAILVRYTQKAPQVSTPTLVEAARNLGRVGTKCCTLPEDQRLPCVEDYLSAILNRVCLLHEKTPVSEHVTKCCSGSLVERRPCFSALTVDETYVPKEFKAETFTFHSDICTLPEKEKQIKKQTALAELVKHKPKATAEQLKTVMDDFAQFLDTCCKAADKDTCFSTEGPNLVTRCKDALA
UniProt P02768, residues 25-609: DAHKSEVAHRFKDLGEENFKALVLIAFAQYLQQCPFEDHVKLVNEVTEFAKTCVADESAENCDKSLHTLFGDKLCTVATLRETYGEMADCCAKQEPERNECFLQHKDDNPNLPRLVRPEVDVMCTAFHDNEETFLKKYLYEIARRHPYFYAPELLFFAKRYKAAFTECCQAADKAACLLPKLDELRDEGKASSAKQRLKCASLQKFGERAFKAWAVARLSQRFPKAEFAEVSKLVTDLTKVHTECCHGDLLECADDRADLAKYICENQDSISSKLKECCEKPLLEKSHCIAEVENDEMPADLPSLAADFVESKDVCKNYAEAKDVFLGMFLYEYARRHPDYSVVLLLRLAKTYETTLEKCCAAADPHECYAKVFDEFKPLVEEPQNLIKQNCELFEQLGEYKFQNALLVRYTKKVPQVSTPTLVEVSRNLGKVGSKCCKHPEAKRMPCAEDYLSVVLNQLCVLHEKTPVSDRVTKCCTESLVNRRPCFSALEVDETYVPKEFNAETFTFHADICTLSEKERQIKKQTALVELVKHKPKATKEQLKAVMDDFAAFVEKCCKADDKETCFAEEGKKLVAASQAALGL
UniProt Q28522, residues 17-600: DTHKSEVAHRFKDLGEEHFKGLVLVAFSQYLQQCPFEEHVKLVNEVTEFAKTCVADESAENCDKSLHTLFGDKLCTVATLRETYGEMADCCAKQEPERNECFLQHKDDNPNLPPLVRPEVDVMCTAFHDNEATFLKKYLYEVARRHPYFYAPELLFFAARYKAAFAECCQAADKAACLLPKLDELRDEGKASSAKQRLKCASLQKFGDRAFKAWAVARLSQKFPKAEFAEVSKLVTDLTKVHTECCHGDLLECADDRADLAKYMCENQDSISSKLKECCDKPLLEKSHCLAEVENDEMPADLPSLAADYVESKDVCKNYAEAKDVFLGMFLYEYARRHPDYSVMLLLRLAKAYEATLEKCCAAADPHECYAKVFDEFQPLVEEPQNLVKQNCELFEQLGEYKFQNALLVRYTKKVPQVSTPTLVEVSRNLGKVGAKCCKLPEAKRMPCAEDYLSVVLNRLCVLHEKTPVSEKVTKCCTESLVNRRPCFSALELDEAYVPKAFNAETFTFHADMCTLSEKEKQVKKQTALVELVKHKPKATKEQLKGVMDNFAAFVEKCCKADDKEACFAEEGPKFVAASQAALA

Experiments:
Experiment in all cases: SPR Biacore 3000, albumin on CM5 chip, one nanobody concentration; ranked by koff, position 6 of 7, class A
[1] = molecular target: mouse serum albumin (mouse) (UniProt P07724)
[2] = molecular target: human serum albumin (human) (UniProt P02768)
[3] = molecular target: rhesus serum albumin (rhesus) (UniProt Q28522)

Measured: binding

B1: PMP6A5 (VHH)
VHH: QVQLAESGGGLVQPGGSLRLTCTASGFTFGSFGMSWVRQAPGEGLEWVSAISADSSDKRYADSVKGRFTISRDNAKKMLYLEMNSLKSEDTAVYYCVIGRGSPASQGTQVTVSS
binds: all assays above
